By UniProt entry, the sequences of proteins in these tests, tags left out. Where a name states a change or a piece, a line headed by the entry shows the natural chain unless it says otherwise.
UniProt Q01638: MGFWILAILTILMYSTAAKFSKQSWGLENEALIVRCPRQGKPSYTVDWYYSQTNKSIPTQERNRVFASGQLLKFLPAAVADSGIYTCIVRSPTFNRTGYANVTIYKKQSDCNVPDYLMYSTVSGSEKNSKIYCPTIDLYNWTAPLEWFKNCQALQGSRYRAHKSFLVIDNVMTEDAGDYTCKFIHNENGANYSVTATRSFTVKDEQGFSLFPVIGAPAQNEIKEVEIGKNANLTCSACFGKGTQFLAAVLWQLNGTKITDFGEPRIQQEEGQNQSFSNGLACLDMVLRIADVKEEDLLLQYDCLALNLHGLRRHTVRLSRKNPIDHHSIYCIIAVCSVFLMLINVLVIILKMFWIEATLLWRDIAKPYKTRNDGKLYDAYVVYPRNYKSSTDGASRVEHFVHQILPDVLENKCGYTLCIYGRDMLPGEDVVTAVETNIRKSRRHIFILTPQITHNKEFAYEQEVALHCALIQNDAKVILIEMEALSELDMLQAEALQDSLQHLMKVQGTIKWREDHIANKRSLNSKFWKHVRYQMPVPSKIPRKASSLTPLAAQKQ

In all, about 78,000 compounds went through this assay and about 1,800 (2.3%) were called active. The inconclusive results got no clear call from the source; some entries with a clear call stand among them for comparison. No stated cut-off is given here; in the data, active means inhibition above about 30%; inconclusive means mostly about 10% to 28%; inactive means weaker than that.
What follows are molecules tested against Interleukin-1 receptor-like 1 (Homo sapiens) (UniProt Q01638) (assay: blocks human ST2 binding to IL-33, primary screen, biochemical, AlphaLISA (AID 1259354)). Conditions: AlphaLISA ST2-Fc/biotin-IL-33 interaction, 1 h; at 17 µM, hits give high values.
`c1nc(N2CCC3(CC2)OCCO3)c2[nH]cnc2n1` was tested, and the inhibition was inconclusive: 14%.
For `COc1c(Cl)ccc2oc3cc4c(c(OC)c3c(=O)c12)[C@H]1C=CO[C@H]1O4`, the inhibition was inconclusive: 16%.
`Cc1ccc([N+](=O)[O-])cc1N=Cc1ccc(Br)c([N+](=O)[O-])c1` was tested, and the inhibition was inconclusive: 13%.
With `C=C(C)Cn1c(Br)nc2c1c(=O)[nH]c(=O)n2C` the inhibition was inconclusive: 10%.
`CN(C)CCNC(=O)c1ccc(S(=O)(=O)N(C)C)cc1` was tested, and the inhibition was inconclusive: 11%.
For `c1nc(-c2cc(NC3CCCC3)nc3[nH]ccc23)cc(N2CCOCC2)n1`, the inhibition was active: 30%.
In the case of `O=c1[nH]c(=O)n([C@H]2C[C@H](O)[C@@H](CO)O2)cc1/C=C/Br`, the inhibition is reported as inconclusive: 15%.
For `Cc1ccc(Nc2ncnc3c2cnn3-c2ccc(Cl)cc2)cc1`, the inhibition was “inactive”.
`CC(C)c1nc(C(=O)N2CCCC(C(=O)c3cccc4ccccc34)C2)cs1` (stereo not drawn) was tested, and the inhibition was inconclusive: 23%.
With `O=C1CSC(c2ccc(Br)cc2)N1c1ccc(F)c(Cl)c1` (stereo not drawn) the inhibition was “inactive”.
In the case of `Cc1cccn2c(=O)c(C=NCc3ccco3)c(Nc3ccc(Cl)cc3)nc12`, the inhibition is reported as active: 34%.
For `CS(=O)(=O)c1nc2ccccc2n1Cc1ccccc1Cl`, the inhibition was “inactive”.
`Cc1ccc(NC(=O)CC(C)C)c([N+](=O)[O-])c1` was tested, and the inhibition was “inactive”.
For `CS(=O)(=O)Nc1ccc(S(=O)(=O)Nc2ccc(F)cc2)cc1`, the inhibition was inconclusive: 15%.
For `COc1cccc(C(=O)N2CCN(c3ccc(Cl)cc3)CC2)c1`, the inhibition was “inactive”.
For `COc1cccc(CN(C)Cc2ncc[nH]2)c1O`, the inhibition was inconclusive: 10%.
With `CCOc1ccc(-c2cnc(-c3cnc(CC)nc3)[nH]2)cc1` the inhibition was inconclusive: 14%.
In the case of `O=C(CCC1CCN(Cc2nc3ccccc3s2)CC1)NCC1CCCO1` (stereo not drawn), the inhibition is reported as “inactive”.
In the case of `COc1ccc(C(=O)CSC2=N/C(=C/c3ccc(O)c(OC)c3)C(=O)N2c2ccccc2)cc1`, the inhibition is reported as inconclusive: 10%.
`O=C(/C=C/CCc1ccccc1)CCc1ccccc1` was tested, and the inhibition was “inactive”.
With `c1ccc(Cc2nnc([C@H]3CCN(Cc4cccnc4)C3)o2)cc1` the inhibition was inconclusive: 10%.
With `O=C1CCSc2ccc(S(=O)(=O)N3CCOC(C(F)(F)F)C3)cc2N1` (stereo not drawn) the inhibition was inconclusive: 10%.
For `Cc1ccc(Cn2c(CCNC(=O)Nc3ccccc3Cl)nc3cccnc32)cc1`, the inhibition was active: 36%.
For `Cc1cc(NC(=O)c2ccco2)nc2c1c(=O)oc1ccccc12`, the inhibition was “inactive”.
For `COC(=O)C1C(=O)C2=C(CC1C)NC(C)=C(C(=O)OC(C)C)C2c1ccc(O)cc1` (stereo not drawn), the inhibition was “inactive”.
`Cc1nnc(NC(=O)CS(=O)(=O)c2cn(Cc3cccc(F)c3)c3ccccc23)s1` was tested, and the inhibition was “inactive”.
In the case of `O=C(COc1ccc([N+](=O)[O-])cc1)NCc1ccc2c(c1)OCO2`, the inhibition is reported as inconclusive: 10%.
With `C=CCN1C(=O)CSc2ccc(C(=O)NC3CCCc4ccccc43)cc21` (stereo not drawn) the inhibition was “inactive”.
For `COc1cc(OC)cc(C(=O)NCC2CCCN(Cc3ccncc3)C2)c1` (stereo not drawn), the inhibition was inconclusive: 12%.
For `O=S(=O)(NCc1ccccc1)N1CCC(O)CC1`, the inhibition was inconclusive: 15%.
With `CC(=O)c1nc2ccccc2n1S(=O)(=O)c1ccc(C)cc1` the inhibition was inconclusive: 10%.
`COc1ccccc1C1CN(Cc2c(C)nc3sccn23)Cc2ccccc2O1` (stereo not drawn) was tested, and the inhibition was inconclusive: 20%.
In the case of `O=C(c1c[nH]c2ccc(F)cc2c1=O)N1CCOC(C(F)(F)F)C1` (stereo not drawn), the inhibition is reported as “inactive”.
With `CC1CCC(NC(=O)CN2C(=O)/C(=C/c3ccccc3F)Sc3ccccc32)CC1` (stereo not drawn) the inhibition was inconclusive: 15%.
With `COc1ccc(S(=O)(=O)N2c3cc(C)ccc3C(C)=CC2(C)C)cc1` the inhibition was “inactive”.
For `COCCN1CCCC2(CCN(Cc3cnc(-c4cccc5ccccc45)nc3)C2)C1` (stereo not drawn), the inhibition was “inactive”.
For `Nc1nc(-c2cccc3[nH]ccc23)cc(N2CCOCC2)n1`, the inhibition was inconclusive: 15%.
`O=C(NCCOc1ccccc1F)C(=O)N1CCCC1` was tested, and the inhibition was inconclusive: 24%.
For `CCc1ccccc1NC(=O)CSc1nnc(-c2ccncc2)n1-c1ccccc1`, the inhibition was “inactive”.
For `COc1ccc(N2C(=O)C3CC=CCC3C2=O)cc1Cl` (stereo not drawn), the inhibition was inconclusive: 20%.
`COc1ccc(S(=O)(=O)N=C2C=C(Nc3cccc(C)c3)C(=O)c3ccccc32)cc1` was tested, and the inhibition was active: 79%.
`O=C(c1ccc(N2CCC(NCc3ccc(C(F)(F)F)cc3F)CC2)cc1)N1CCOCC1` was tested, and the inhibition was inconclusive: 11%.
`CCn1cnc2cc(NCc3ccc(OC)cc3)ccc21` was tested, and the inhibition was inconclusive: 13%.
In the case of `c1ccc(C2CCCN(Cc3nc(-c4cnccn4)no3)CC2)cc1` (stereo not drawn), the inhibition is reported as “inactive”.
For `COc1ccc(NC(=O)COc2ccc(Br)cc2C)cc1`, the inhibition was inconclusive: 22%.
In the case of `CC(=O)c1ccc(N2CCN(C(=O)c3cc(C)nc4c(C)cccc34)CC2)cc1`, the inhibition is reported as inconclusive: 23%.
For `Cc1c(-c2nc3ccccc3c(=O)o2)cccc1[N+](=O)[O-]`, the inhibition was active: 30%.
In the case of `COc1cccc(-n2cc(-c3cc4ccccc4oc3=O)[nH]c2=O)c1`, the inhibition is reported as “inactive”.

Source: PubChem BioAssay AID1259354 (Paczesny and Yang Labs, IUPUI and University of Michigan, 2018)
